Experimental findings from US20120282269A1 (Boehringer Ingelheim, published 2012) are described below.

The chains behind the UniProt entries cited, without tags or fusion partners. Where a name states a change or a piece, a line headed by the entry shows the natural chain unless it says otherwise. Residues count along the entry.
UniProt Q5VWK5, residues 24-353: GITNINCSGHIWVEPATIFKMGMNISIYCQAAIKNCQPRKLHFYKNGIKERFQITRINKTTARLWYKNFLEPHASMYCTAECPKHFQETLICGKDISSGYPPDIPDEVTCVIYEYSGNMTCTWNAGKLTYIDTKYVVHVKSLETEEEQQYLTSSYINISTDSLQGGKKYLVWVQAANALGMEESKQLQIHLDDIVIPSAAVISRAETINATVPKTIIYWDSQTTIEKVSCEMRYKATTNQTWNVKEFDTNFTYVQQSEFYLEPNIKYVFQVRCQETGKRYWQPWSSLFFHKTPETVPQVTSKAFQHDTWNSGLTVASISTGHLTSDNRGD
UniProt P29460: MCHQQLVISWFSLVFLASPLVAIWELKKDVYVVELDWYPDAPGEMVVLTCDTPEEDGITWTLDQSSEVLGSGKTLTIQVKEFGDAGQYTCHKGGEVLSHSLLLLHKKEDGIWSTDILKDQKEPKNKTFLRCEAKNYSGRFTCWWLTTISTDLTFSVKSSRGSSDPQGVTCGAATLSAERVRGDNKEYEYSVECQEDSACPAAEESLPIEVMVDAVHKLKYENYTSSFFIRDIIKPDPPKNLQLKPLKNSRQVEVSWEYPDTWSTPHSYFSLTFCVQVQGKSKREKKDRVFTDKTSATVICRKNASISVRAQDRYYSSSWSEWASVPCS

These are yes or no findings as the source states them, for the method shown. Some binding calls cover weakened binding; strength is not graded here.

The assay concerns the target Human IL-23R-Fc (human) (UniProt Q5VWK5). Kind of assay: biosensor sensorgram (response in nm): human IL-23R-Fc captured on the sensor surface, 10 nM human IL-23 injected.

As for “recombinant human IL-23 (from UniProt P29460 23-328) (ligand)”, the binding entry is recorded as “binds”.
